Reference: PMC7938106, “In vitro complex formation of human PYRIN domain-only protein 3 prevented by self-oligomerization of ASC PYD domain” (Saudi Journal of Biological Sciences, 2021)
These are yes or no findings as the source states them, for the method shown.

Amino acid sequences for entries named in this document (tags omitted). Residues count along the entry.
UniProt Q9ULZ3, residues 1-96: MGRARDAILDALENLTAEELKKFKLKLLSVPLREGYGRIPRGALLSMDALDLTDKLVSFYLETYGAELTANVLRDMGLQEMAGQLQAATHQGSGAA

Experiments:
[1] = target: ASC PYD domain, amino acids 1-96 (human) (UniProt Q9ULZ3); experiment: SEC; POP3 PYD (1-83) and ASC PYD (1-96) mixed at a molar ratio of about 1:1, pre-incubated 60 min at 4 °C; Superdex 200 HR 10/30 in 20 mM Tris-HCl pH 8.0, 150 mM NaCl; both purified
[2] = target: ASC PYD domain, amino acids 1-96 (human) (UniProt Q9ULZ3); experiment: native gel or EMSA; native PAGE, 8-25% acrylamide gradient gels, Coomassie stain; purified POP3 PYD (1-83) and ASC PYD (1-96); both purified

binding [1]: no binding | binding [2]: no binding
B1: PYD domain of PYRIN Domain-Only Protein 3 (POP3), amino acids 1-83 (domain or fragment, human, UniProt W6CW81 1-83, looked up)
chain: MESKYKEILLLTSLDNITDEELDRFKCFLPDEFNIATGKLHTLNSTSSQLDLKRWHGVCSEEDRIFQKLNYMLVAKCLREEQE
notes: PYRIN domain-only protein 3 (POP3), human, PYD domain, residues 1-83 of the 113-residue protein; The vector probably adds linker residues before the His6; also called POP3 PYD (1-83 aa); POP3PYD; not shown: His6, C-terminal, kept
